Measurements reported in PubChem BioAssay AID1224826 (NIAID, 2016).
Screen: 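Knock-downs that raise or lower Tnf reporter signal after endotoxin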 (primary screen). Cell system: RAW264.7 G9 macrophages from mouse bearing reporters for p65 (GFP) and the Tnf promoter (mCherry). Reagents: siRNA pool against mouse genes, 100 nM. Time to read-out: 16 h of LPS stimulation, after 2 days of siRNA transfection. Challenge: bacterial lipopolysaccharide (Salmonella minnesota R595), 10 ng/ml. Measurement: 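Imaged Tnf reporter mCherry in nuclei, minus background, normalised per plate to the median and expressed as robust z-scores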. Reading the numbers: Tnf reporter robust z-score: higher = stronger Tnf promoter reporter signal after LPS. Call rule: 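a well counts as active at a score of -1.3 or below (Tlr4 knock-down control median) or above 3 (raised signal); controls and wells holding fewer than 50 cells are excluded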. Meaning of the calls: active = Tnf reporter clearly lowered or raised; inactive = no clear change in Tnf reporter.
In all, the deposit lists about 17,000 reagents; this is a part drawn at random. About 1,110 of them (6.6%) were called active. 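Active means lowered or raised reporter signal; replicate intensities are raw and not normalised per plate.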 Further read-outs or replicates are left out here.

With Or6c2 (olfactory receptor family 6 subfamily C member 2), what was measured?
Tnf reporter robust z-score: 0.77; fewer than 50 cells in well: enough cells in well; call: inactive

Which result is listed for Nt5c3 (5'-nucleotidase, cytosolic III)?
Tnf reporter robust z-score: 0.03; fewer than 50 cells in well: enough cells in well; call: inactive

For Fcrla (Fc receptor-like A), what was measured?
Tnf reporter robust z-score: 0.68; fewer than 50 cells in well: enough cells in well; call: inactive

For Xpnpep1 (X-prolyl aminopeptidase (aminopeptidase P) 1, soluble), what does the deposit list?
Tnf reporter robust z-score: -0.85; fewer than 50 cells in well: enough cells in well; call: inactive

What is on record for Klre1 (killer cell lectin-like receptor family E member 1)?
Tnf reporter robust z-score: -0.88; fewer than 50 cells in well: enough cells in well; call: inactive

For Tmem161a (transmembrane protein 161A), what does the deposit list?
Tnf reporter robust z-score: 1.36; fewer than 50 cells in well: enough cells in well; call: inactive

How did the screen score Rspo4 (R-spondin 4)?
Tnf reporter robust z-score: 0.33; fewer than 50 cells in well: enough cells in well; call: inactive

How did the screen score R3hdm1 (R3H domain containing 1)?
Tnf reporter robust z-score: 0.44; fewer than 50 cells in well: enough cells in well; call: inactive

How did the screen score Dmp1 (dentin matrix protein 1)?
Tnf reporter robust z-score: -0.68; fewer than 50 cells in well: enough cells in well; call: inactive

Which result is listed for B3gat1 (beta-1,3-glucuronyltransferase 1)?
Tnf reporter robust z-score: -0.91; fewer than 50 cells in well: enough cells in well; call: inactive

What did the screen give for Tmod3 (tropomodulin 3)?
Tnf reporter robust z-score: 1.38; fewer than 50 cells in well: enough cells in well; call: inactive

Taken from above:
Under “Tnf reporter robust z-score”, Or6c2 (olfactory receptor family 6 subfamily C member 2) is entered as 0.77
Fcrla (Fc receptor-like A), call: inactive
For “fewer than 50 cells in well”, Nt5c3 (5'-nucleotidase, cytosolic III) shows enough cells in well

More records:
How did the screen score Gcgr (glucagon receptor)?
Tnf reporter robust z-score: 0.97; fewer than 50 cells in well: enough cells in well; call: inactive

With Cfap36 (cilia and flagella associated protein 36), how do the results read?
fewer than 50 cells in well: fewer than 50 cells per well; well left out of calls; call: inactive

With Rap1a (Rap1a member of RAS oncogene family), what does the deposit list?
Tnf reporter robust z-score: 2.11; fewer than 50 cells in well: enough cells in well; call: inactive

What is on record for Chp1 (calcineurin-like EF hand protein 1)?
Tnf reporter robust z-score: 0.08; fewer than 50 cells in well: enough cells in well; call: inactive

Which result is listed for Cttn (cortactin)?
Tnf reporter robust z-score: 0.37; fewer than 50 cells in well: enough cells in well; call: inactive

With Or9g10 (olfactory receptor family 9 subfamily G member 10), what does the deposit list?
Tnf reporter robust z-score: 1.64; fewer than 50 cells in well: enough cells in well; call: inactive

What is on record for Arhgap31 (Rho GTPase activating protein 31)?
Tnf reporter robust z-score: 1; fewer than 50 cells in well: enough cells in well; call: inactive

Which result is listed for Pira1 (paired-Ig-like receptor A1)?
Tnf reporter robust z-score: 0.87; fewer than 50 cells in well: enough cells in well; call: inactive

With Icam1 (intercellular adhesion molecule 1), how do the results read?
Tnf reporter robust z-score: -0.46; fewer than 50 cells in well: enough cells in well; call: inactive

With Sclt1 (sodium channel and clathrin linker 1), what does the deposit list?
Tnf reporter robust z-score: 0.66; fewer than 50 cells in well: enough cells in well; call: inactive
